{"sequences": {"note": "Chains of the proteins cited; added tags and fusions are not shown. Lines headed by an entry give the natural chain unless they say otherwise; changes in a name come on top.", "UniProt Q15544, whole entry": "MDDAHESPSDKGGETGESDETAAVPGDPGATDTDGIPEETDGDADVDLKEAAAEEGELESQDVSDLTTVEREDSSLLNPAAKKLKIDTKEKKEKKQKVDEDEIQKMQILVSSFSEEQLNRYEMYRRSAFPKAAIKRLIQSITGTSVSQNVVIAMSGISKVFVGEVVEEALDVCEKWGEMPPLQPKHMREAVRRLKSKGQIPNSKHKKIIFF", "UniProt P37802": "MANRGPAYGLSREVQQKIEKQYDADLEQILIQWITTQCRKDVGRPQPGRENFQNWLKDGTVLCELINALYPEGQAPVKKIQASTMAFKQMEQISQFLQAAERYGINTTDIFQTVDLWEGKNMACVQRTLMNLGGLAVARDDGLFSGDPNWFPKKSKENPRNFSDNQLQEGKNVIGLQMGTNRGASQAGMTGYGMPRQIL", "UniProt Q9BTW9": "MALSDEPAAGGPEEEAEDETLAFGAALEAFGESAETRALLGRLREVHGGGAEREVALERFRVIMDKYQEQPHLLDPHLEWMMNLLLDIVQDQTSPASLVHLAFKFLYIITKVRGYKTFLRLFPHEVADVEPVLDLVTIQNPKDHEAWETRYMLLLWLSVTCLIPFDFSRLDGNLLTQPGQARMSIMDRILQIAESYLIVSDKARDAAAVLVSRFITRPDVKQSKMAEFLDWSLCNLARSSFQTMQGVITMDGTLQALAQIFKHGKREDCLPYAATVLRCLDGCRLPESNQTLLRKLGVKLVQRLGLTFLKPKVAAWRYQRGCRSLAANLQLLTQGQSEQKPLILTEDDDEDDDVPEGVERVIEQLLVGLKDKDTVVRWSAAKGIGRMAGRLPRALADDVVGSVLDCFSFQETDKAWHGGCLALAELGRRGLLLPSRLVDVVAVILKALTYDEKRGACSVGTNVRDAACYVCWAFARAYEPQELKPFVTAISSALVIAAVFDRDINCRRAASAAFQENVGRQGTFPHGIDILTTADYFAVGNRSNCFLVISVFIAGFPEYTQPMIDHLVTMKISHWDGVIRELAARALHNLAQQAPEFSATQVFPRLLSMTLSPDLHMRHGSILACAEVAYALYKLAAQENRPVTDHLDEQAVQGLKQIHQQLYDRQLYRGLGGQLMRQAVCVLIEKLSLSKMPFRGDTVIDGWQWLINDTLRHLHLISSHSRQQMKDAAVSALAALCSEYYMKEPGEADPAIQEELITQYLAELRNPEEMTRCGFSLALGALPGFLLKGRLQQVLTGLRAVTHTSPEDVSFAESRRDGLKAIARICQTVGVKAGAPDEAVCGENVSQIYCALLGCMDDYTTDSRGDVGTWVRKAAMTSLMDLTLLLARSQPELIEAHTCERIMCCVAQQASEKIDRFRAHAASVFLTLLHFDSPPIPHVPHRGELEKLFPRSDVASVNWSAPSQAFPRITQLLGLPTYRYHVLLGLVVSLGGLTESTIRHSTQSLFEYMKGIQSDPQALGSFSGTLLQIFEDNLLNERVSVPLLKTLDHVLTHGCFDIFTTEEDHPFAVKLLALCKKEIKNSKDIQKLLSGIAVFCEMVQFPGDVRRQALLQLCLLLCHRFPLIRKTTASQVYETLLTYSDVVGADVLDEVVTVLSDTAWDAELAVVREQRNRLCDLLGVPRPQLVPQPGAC", "UniProt Q9UL54": "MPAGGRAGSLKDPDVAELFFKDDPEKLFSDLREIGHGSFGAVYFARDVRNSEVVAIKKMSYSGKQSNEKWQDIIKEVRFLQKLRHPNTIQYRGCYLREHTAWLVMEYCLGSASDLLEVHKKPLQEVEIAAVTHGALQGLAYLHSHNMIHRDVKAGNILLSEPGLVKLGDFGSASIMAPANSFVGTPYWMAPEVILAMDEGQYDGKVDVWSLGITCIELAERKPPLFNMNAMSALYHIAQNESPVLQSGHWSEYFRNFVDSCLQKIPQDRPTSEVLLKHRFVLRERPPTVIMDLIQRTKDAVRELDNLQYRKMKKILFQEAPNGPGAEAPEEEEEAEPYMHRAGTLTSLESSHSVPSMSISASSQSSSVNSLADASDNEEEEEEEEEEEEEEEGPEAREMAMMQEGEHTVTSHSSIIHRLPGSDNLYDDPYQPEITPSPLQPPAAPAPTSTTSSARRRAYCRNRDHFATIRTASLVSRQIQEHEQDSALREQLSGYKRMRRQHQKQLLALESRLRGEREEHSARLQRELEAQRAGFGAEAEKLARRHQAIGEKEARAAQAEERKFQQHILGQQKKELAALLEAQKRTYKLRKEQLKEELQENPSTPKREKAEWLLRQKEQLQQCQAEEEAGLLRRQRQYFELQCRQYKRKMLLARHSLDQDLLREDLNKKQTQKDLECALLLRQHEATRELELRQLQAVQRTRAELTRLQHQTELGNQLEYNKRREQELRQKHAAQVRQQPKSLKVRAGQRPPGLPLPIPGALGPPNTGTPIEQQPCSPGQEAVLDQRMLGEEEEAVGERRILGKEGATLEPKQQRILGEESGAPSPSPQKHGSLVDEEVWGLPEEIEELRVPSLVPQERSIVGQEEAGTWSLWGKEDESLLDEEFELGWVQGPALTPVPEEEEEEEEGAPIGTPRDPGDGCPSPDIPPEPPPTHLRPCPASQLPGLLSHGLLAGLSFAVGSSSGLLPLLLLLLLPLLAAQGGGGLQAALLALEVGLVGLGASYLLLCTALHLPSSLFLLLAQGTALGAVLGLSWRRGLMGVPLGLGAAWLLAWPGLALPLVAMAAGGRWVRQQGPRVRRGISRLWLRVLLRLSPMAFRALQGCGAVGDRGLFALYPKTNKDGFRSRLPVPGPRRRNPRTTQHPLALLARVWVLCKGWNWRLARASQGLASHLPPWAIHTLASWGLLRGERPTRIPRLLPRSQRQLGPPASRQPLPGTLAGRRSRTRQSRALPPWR", "UniProt Q66K14, whole entry, looked up": "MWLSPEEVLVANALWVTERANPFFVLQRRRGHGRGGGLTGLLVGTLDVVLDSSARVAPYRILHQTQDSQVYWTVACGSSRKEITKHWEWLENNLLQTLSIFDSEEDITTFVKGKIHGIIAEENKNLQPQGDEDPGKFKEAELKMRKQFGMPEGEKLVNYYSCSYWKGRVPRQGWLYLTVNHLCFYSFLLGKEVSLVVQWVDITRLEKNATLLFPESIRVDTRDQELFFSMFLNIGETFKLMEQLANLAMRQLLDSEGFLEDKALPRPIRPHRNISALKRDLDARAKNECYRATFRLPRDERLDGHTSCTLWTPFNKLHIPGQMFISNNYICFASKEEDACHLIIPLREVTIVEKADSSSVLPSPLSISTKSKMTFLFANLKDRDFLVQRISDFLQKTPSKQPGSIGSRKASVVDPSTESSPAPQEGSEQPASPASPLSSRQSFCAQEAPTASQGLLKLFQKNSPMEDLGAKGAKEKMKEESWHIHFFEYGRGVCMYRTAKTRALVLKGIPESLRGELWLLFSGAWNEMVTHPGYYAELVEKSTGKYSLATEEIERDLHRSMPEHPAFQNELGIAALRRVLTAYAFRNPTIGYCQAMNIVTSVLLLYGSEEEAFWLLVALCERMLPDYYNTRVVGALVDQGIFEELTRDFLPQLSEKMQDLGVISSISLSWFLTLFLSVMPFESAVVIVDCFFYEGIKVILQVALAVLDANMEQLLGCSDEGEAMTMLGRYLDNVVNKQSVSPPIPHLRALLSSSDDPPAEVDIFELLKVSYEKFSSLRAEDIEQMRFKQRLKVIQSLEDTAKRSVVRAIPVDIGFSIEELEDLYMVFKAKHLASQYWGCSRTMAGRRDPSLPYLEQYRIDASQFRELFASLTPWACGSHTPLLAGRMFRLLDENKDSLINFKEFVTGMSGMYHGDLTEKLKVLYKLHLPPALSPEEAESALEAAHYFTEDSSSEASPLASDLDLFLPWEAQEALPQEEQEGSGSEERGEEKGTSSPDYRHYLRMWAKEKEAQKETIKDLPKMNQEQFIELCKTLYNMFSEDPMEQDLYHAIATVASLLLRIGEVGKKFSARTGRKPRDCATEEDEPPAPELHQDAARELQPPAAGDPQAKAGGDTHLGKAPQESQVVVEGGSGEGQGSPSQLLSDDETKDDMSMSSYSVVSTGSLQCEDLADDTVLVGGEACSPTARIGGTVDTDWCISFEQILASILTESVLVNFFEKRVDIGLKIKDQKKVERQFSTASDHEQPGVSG", "UniProt Q96BW9": "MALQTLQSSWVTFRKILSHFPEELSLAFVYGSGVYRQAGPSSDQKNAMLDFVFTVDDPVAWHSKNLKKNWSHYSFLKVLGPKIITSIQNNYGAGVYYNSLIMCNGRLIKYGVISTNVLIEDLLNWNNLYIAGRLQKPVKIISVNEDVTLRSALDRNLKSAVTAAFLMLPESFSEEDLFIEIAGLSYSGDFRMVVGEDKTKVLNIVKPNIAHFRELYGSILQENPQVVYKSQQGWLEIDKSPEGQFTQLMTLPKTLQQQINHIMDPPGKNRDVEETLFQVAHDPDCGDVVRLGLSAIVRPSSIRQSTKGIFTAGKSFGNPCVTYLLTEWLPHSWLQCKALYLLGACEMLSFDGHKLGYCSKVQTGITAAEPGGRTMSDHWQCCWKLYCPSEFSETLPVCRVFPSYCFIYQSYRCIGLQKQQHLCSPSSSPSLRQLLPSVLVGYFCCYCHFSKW", "UniProt Q6P1N9": "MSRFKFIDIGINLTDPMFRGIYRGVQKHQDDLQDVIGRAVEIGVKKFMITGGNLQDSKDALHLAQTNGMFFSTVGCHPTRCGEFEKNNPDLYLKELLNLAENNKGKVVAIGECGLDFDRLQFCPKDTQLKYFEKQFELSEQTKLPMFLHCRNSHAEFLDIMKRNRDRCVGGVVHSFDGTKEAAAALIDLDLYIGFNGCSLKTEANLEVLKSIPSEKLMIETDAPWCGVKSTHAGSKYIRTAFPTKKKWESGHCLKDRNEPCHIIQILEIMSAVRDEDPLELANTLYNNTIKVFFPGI", "UniProt Q15545, whole entry": "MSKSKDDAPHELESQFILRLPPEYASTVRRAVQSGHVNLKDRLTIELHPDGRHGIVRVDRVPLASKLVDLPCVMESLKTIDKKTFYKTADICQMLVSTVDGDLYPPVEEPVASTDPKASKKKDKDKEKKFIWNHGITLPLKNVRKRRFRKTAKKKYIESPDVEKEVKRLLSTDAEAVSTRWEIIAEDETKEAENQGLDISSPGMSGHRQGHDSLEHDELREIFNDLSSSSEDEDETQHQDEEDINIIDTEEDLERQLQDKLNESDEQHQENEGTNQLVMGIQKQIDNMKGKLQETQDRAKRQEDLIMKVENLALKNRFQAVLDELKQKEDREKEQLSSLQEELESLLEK", "UniProt Q0IIM8": "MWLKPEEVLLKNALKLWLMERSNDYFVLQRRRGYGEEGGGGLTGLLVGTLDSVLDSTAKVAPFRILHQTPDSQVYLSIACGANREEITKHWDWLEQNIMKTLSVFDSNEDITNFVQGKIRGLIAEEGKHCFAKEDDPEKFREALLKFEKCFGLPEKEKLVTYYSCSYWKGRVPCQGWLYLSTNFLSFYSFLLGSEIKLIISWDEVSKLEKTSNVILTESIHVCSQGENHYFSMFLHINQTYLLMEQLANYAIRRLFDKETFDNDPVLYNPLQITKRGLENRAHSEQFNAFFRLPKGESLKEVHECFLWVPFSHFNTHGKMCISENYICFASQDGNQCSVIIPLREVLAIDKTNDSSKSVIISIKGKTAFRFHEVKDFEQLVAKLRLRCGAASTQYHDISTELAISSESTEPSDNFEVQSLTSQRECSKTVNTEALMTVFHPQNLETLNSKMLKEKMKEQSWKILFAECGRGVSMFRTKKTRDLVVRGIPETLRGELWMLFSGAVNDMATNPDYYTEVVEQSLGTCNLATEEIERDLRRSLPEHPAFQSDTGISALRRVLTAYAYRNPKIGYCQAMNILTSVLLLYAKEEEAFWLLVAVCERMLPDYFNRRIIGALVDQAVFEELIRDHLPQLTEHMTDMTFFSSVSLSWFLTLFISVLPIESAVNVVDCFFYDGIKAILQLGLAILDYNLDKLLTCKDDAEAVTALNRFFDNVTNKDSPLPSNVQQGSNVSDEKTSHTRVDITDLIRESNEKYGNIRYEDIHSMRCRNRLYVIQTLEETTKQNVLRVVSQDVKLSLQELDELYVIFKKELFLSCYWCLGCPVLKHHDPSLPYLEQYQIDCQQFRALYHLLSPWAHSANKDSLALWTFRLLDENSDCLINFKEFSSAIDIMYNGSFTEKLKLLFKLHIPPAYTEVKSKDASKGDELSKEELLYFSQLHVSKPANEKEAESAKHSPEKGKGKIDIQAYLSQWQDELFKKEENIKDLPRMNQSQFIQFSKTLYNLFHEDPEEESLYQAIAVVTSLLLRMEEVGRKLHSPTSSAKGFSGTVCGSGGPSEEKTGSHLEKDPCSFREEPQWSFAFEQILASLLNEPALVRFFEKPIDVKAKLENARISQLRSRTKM"}, "source": "the supplement of paper PMC12067093", "about": "“Discovery and optimisation of a covalent ligand for TRIM25 and its application to targeted protein ubiquitination” (Chemical Science, 2025)", "note": "The list shows a part of the results.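 Also: competitive profiling in live THP-1 cells: cysteine peptides tagged with an iodoacetamide desthiobiotin (IA-DTB) probe, intensity after compound treatment relative to DMSO-treated cells.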"}
{"compound": "Cc1cc(ccc1-c1ccccc1)C(=O)N1CCCN(CC1)C(=O)CCl [compound 10]", "assay": "probe-labelled cysteine peptide fold change vs DMSO (competition) (log2 fold change); higher = less target engagement (more negative = stronger competition)", "conditions": "50 µM; THP-1; incubation time: 4 h"}
{"target": "TAF11_Q15544_173_VFVGEVVEEALDVCEK (UniProt Q15544)", "probe-labelled cysteine peptide fold change": 0.297}
{"target": "TAGLN2_P37802_38_QYDADLEQILIQWITTQCRK (UniProt P37802)", "probe-labelled cysteine peptide fold change": -0.903}
{"target": "TBCD_Q9BTW9_457_GACSVGTNVR (UniProt Q9BTW9)", "probe-labelled cysteine peptide fold change": 0.00804}
{"target": "TBC1D2B_Q9UPU7_38_LCGYLQK (UniProt Q9UPU7)", "probe-labelled cysteine peptide fold change": -0.749}
{"target": "TAF6L_Q9Y6J9_122_GCAETAVR (UniProt Q9Y6J9)", "probe-labelled cysteine peptide fold change": 0.0335}
{"target": "TAF5_Q15542_715_GHTDTVCSLR (UniProt Q15542)", "probe-labelled cysteine peptide fold change": 0.123}
{"target": "TAOK2_Q9UL54_643_QYFELQCR (UniProt Q9UL54)", "probe-labelled cysteine peptide fold change": -0.00659}
{"target": "TBCCD1_Q9NVR7_337_CNESFIYLLSPLR (UniProt Q9NVR7)", "probe-labelled cysteine peptide fold change": 0.422}
{"target": "TBC1D9B_Q66K14_876_ELFASLTPWACGSHTPLLAGR (UniProt Q66K14)", "probe-labelled cysteine peptide fold change": -0.0551}
{"target": "SYNJ2_O15056_31_GRDDCLLFEAGTVATLAPEEK (UniProt O15056)", "probe-labelled cysteine peptide fold change": 0.106}
{"target": "SYNPO2_Q9UMS6_290_VEVILDCSDR (UniProt Q9UMS6)", "probe-labelled cysteine peptide fold change": -0.237}
{"target": "TACO1_Q9BSH4_160_CQADIR (UniProt Q9BSH4)", "probe-labelled cysteine peptide fold change": -0.0524}
{"target": "TBL3_Q12788_41+43_AQLDQTGQHLFCVCGTR (UniProt Q12788)", "probe-labelled cysteine peptide fold change": -0.349}
{"target": "TAMM41_Q96BW9_285_DVEETLFQVAHDPDCGDVVR (UniProt Q96BW9)", "probe-labelled cysteine peptide fold change": -0.115}
{"target": "TANC1_Q9C0D5_1003_KGQCALVHSALR (UniProt Q9C0D5)", "probe-labelled cysteine peptide fold change": -0.114}
{"target": "TATDN1_Q6P1N9_81_CGEFEK (UniProt Q6P1N9)", "probe-labelled cysteine peptide fold change": -0.33}
{"target": "TAF2_Q6P1X5_34_LTHQVVCINNINFQR (UniProt Q6P1X5)", "probe-labelled cysteine peptide fold change": 0.115}
{"target": "TAF7_Q15545_72_LVDLPCVMESLK (UniProt Q15545)", "probe-labelled cysteine peptide fold change": -0.415}
{"target": "TCEA2_Q15560_173_LSAQIEECIFR (UniProt Q15560)", "probe-labelled cysteine peptide fold change": -0.226}
{"target": "TACC3_Q9Y6A5_828_ICDDLISK (UniProt Q9Y6A5)", "probe-labelled cysteine peptide fold change": 0.241}
{"target": "TBC1D22B_Q9NU19_144_NSSDTCLR (UniProt Q9NU19)", "probe-labelled cysteine peptide fold change": -0.673}
{"target": "TBC1D15_Q8TC07_605_IDVEDILCK (UniProt Q8TC07)", "probe-labelled cysteine peptide fold change": 0.271}
{"target": "TBK1_Q9UHD2_267_AENGPIDWSGDMPVSCSLSR (UniProt Q9UHD2)", "probe-labelled cysteine peptide fold change": -0.237}
{"target": "TBC1D8B_Q0IIM8_840_HHDPSLPYLEQYQIDCQQFR (UniProt Q0IIM8)", "probe-labelled cysteine peptide fold change": 0.682}
{"target": "TAP1_Q03518_722_KPCVLILDDATSALDANSQLQVEQLLYESPER (UniProt Q03518)", "probe-labelled cysteine peptide fold change": 0.311}
{"target": "TBCD_Q9BTW9_420_AWHGGCLALAELGR (UniProt Q9BTW9)", "probe-labelled cysteine peptide fold change": 0.0126}
{"target": "TBC1D9B_Q66K14_76_ILHQTQDSQVYWTVACGSSR (UniProt Q66K14)", "probe-labelled cysteine peptide fold change": 0.0269}
{"target": "TARBP2_Q15633_73_VTVGDTSCTGQGPSK (UniProt Q15633)", "probe-labelled cysteine peptide fold change": 0.0622}
{"target": "TAF4_O00268_1066_DLIFCLENER (UniProt O00268)", "probe-labelled cysteine peptide fold change": 0.252}
{"target": "TBL1X_O60907_571_VGASASDGSVCVLDLR (UniProt O60907)", "probe-labelled cysteine peptide fold change": 0.0723}
{"target": "SZT2_Q5T011_2339_CPVVVDSSSAQNGAPR (UniProt Q5T011)", "probe-labelled cysteine peptide fold change": -0.0826}
{"target": "TACC1_O75410_219_AGNSCPELVPSR (UniProt O75410)", "probe-labelled cysteine peptide fold change": -0.269}
{"target": "TADA1_Q96BN2_139_LCSHTMMLPTR (UniProt Q96BN2)", "probe-labelled cysteine peptide fold change": -0.121}
{"target": "TBC1D8B_Q0IIM8_80_ILHQTPDSQVYLSIACGANREEITK (UniProt Q0IIM8)", "probe-labelled cysteine peptide fold change": -0.0632}
{"target": "TAGLN2_P37802_124_NMACVQR (UniProt P37802)", "probe-labelled cysteine peptide fold change": 0.0769}
